In patent US20050260210A1 (FACET BIOTECH, published 2005) one finds binding data, which are given here for one molecule.

Results are given in words; binding and its absence hold for the method and conditions named. A result given as binding can be weak or reduced; the word gives no strength.

This experiment deals with rabbit α5β1 integrin (rabbit). The experiment can be described thus: IHC of rabbit VX2 tumor sections, IIA1 followed by an anti-mouse secondary to detect total α5β1.

B1: IIA1, anti-α5β1 mouse antibody (antibody, mouse IgG1, V domains shown)
VH: QVQLKESGPGLVAPSQSLSITCTISGFSLTDYGVHWVRQPPGKGLEWLVVIWSDGSSTYNSALKSRMTIRKDNSKSQVFLIMNSLQTDDSAMYYCARHGTYYGMTTTGDALDYWGQGTSVTVSS
VL: QIVLTQSPAIMSASLGERVTMTCTASSSVSSNYLHWYQQKPGSAPNLWIYSTSNLASGVPARFSGSGSGTSYSLTISSMEAEDAATYYCHQYLRSPPTFGGGTKLEIK
notes: also called mouse anti-α5β1 antibody
Regarding B1, the binding entry is “binds”.
